# Results as given in the supplement of paper PMC8728848.
# The other results are listed elsewhere or left out.
# B1: Protein L(A-C2) (Finegoldia magna), Q51912 (protein)
# chain: ADEPIDLEKLEEKRDKENVGNLPKFDNEVKDGSENPMAKYPDFDDEASTRFETENNEFEEKKVVSDNFFDQSEHPFVENKEETPETPETDSEEEVTIKANLIFANGSTQTAEFKGTFEKATSEAYAYADTLKKDNGEYTVDVADKGYTLNIKFAGKEKTPEEPKEEVTIKANLIYADGKTQTAEFKGTFEEATAEAYRYADALKKDNGEYTVDVADKGYTLNIKFAGKEKTPEEPKEEVTIKANLIYADGKTQTAEFKGTFEEATAEAYRYADLLAKENGKYTVDVADKGYTLNIKFAGKEKTPEEPKEEVTIKANLIYADGKTQTAEFKGTFAEATAEAYRYADLLAKENGKYTADLEDGGYTINIRFAGKKVDEKPEEKEQVTIKENIYFEDGTVQTATFKGTFAEATAEAYRYADLLSKEHGKYTADLEDGGYTINIRFAGKEEPEETPEKPEVQDGYASYEEAEAAAKEALKNDDVNKSYTIRQGADGRYYYVLSPVEAEEEKPEAQNGYATYEEAEAAAKKALENDPINKSYSIRQGADGRYYYVLSPVEAE
# How the values were obtained:
# Assay in all cases: glycan array binding signal (z-score within array); higher = stronger binding
# Conditions in all cases: glycan notation: IUPAC condensed, linker removed
# [1] = target: Fuc(a1-2)Gal(b1-4)GlcNAc(b1-3)Gal(b1-4)GlcNAc(b1-2)Man(a1-3)[Fuc(a1-2)Gal(b1-4)GlcNAc(b1-3)Gal(b1-4)GlcNAc(b1-2)Man(a1-6)]Man(b1-4)GlcNAc(b1-4)GlcNAc
# In short: (§1)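 Glycan array data were curated from 3228 arrays in the Consortium for Functional Glycomics database and kept only where the protein sequence was available. Glycan names were converted to IUPAC-condensed notation, and columns mapping to the same glycan were averaged. The binding signal is a within-array Z-score, averaged across arrays of the same protein sequence at different concentrations or buffers and across linkers. Negative Z-scores can be read as non-binding.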
# [2] = target: Fuc(a1-2)Gal(b1-4)GlcNAc(b1-3)Gal(b1-4)GlcNAc(b1-3)Gal(b1-4)GlcNAc
# In short: as §1
# [3] = target: Fuc(a1-2)Gal(b1-4)GlcNAc(b1-3)GalNAc
# In short: as §1
# [4] = target: Fuc(a1-2)Gal(b1-4)GlcNAc(b1-3)[Fuc(a1-2)Gal(b1-4)GlcNAc(b1-6)]GalNAc
# In short: as §1
# [5] = target: Fuc(a1-2)Gal(b1-4)GlcNAc(b1-3)[Fuc(a1-3)[Gal(b1-4)]GlcNAc(b1-6)]Gal(b1-4)Glc
# In short: as §1
# [6] = target: Fuc(a1-2)Gal(b1-4)GlcNAc(b1-6)GalNAc
# In short: as §1
# [7] = target: Fuc(a1-2)Gal(b1-4)GlcNAc6S
# In short: as §1
# [8] = target: Fuc(a1-2)Gal(b1-4)[Fuc(a1-3)]GlcNAc
# In short: as §1
# [9] = target: Fuc(a1-2)Gal(b1-4)[Fuc(a1-3)]GlcNAc(b1-2)Man(a1-3)[Fuc(a1-2)Gal(b1-4)[Fuc(a1-3)]GlcNAc(b1-2)Man(a1-6)]Man(b1-4)GlcNAc(b1-4)[Fuc(a1-6)]GlcNAc
# In short: as §1
# [10] = target: Fuc(a1-2)Gal(b1-4)[Fuc(a1-3)]GlcNAc(b1-2)[Fuc(a1-2)Gal(b1-4)[Fuc(a1-3)]GlcNAc(b1-4)]Man(a1-3)[Fuc(a1-2)Gal(b1-4)[Fuc(a1-3)]GlcNAc(b1-2)Man(a1-6)]Man(b1-4)GlcNAc(b1-4)GlcNAc
# In short: as §1
# [11] = target: Fuc(a1-2)Gal(b1-4)[Fuc(a1-3)]GlcNAc(b1-3)Gal(b1-4)[Fuc(a1-3)]GlcNAc
# In short: as §1
# [12] = target: Fuc(a1-2)Gal(b1-4)[Fuc(a1-3)]GlcNAc(b1-3)Gal(b1-4)[Fuc(a1-3)]GlcNAc(b1-3)Gal(b1-4)[Fuc(a1-3)]GlcNAc
# In short: as §1
# [13] = target: Fuc(a1-2)Gal(b1-4)[Fuc(a1-3)]GlcNAc(b1-3)GalNAc
# In short: as §1
# [14] = target: Fuc(a1-2)Gal(b1-4)[Fuc(a1-3)]GlcNAc(b1-3)[Neu5Ac(a2-6)Gal(b1-4)GlcNAc(b1-6)]Gal(b1-4)Glc
# In short: as §1
# [15] = target: Fuc(a1-2)Gal3S(b1-4)GlcNAc
# In short: as §1
# [16] = target: Fuc(a1-2)Gal6S(b1-3)GlcNAc
# In short: as §1
# [17] = target: Fuc(a1-2)Gal6S(b1-3)GlcNAc6S
# In short: as §1
# [18] = target: Fuc(a1-2)Gal6S(b1-4)Glc
# In short: as §1
# [19] = target: Fuc(a1-2)Gal6S(b1-4)Glc6S
# In short: as §1
# [20] = target: Fuc(a1-2)[Gal(a1-3)]Gal
# In short: as §1
# [21] = target: Fuc(a1-2)[Gal(a1-3)]Gal(b1-3)GalNAc
# In short: as §1
# [22] = target: Fuc(a1-2)[Gal(a1-3)]Gal(b1-3)GalNAc(b1-3)Gal(a1-4)Gal(b1-4)Glc
# In short: as §1
# [23] = target: Fuc(a1-2)[Gal(a1-3)]Gal(b1-3)GlcNAc
# In short: as §1
# [24] = target: Fuc(a1-2)[Gal(a1-3)]Gal(b1-3)GlcNAc(b1-2)Man(a1-3)[Fuc(a1-2)[Gal(a1-3)]Gal(b1-3)GlcNAc(b1-2)Man(a1-6)]Man(b1-4)GlcNAc(b1-4)GlcNAc
# In short: as §1
# [25] = target: Fuc(a1-2)[Gal(a1-3)]Gal(b1-3)GlcNAc(b1-2)Man(a1-3)[Fuc(a1-2)[Gal(a1-3)]Gal(b1-3)GlcNAc(b1-2)Man(a1-6)]Man(b1-4)GlcNAc(b1-4)[Fuc(a1-6)]GlcNAc
# In short: as §1
# [26] = target: Fuc(a1-2)[Gal(a1-3)]Gal(b1-3)GlcNAc(b1-3)GalNAc
# In short: as §1
# [27] = target: Fuc(a1-2)[Gal(a1-3)]Gal(b1-3)GlcNAc(b1-6)GalNAc
# In short: as §1
# [28] = target: Fuc(a1-2)[Gal(a1-3)]Gal(b1-4)Glc
# In short: as §1
# [29] = target: Fuc(a1-2)[Gal(a1-3)]Gal(b1-4)GlcNAc
# In short: as §1
# [30] = target: Fuc(a1-2)[Gal(a1-3)]Gal(b1-4)GlcNAc(b1-2)Man
# In short: as §1
binder,measurement,setting,value
B1,glycan array binding signal (z-score),[1],0.464
same,glycan array binding signal (z-score),[2],-0.239
same,glycan array binding signal (z-score),[3],0.441
same,glycan array binding signal (z-score),[4],0.928
same,glycan array binding signal (z-score),[5],-0.819
same,glycan array binding signal (z-score),[6],0.521
same,glycan array binding signal (z-score),[7],-0.568
same,glycan array binding signal (z-score),[8],0.417
same,glycan array binding signal (z-score),[9],1.53
same,glycan array binding signal (z-score),[10],1.92
same,glycan array binding signal (z-score),[11],-0.152
same,glycan array binding signal (z-score),[12],0.114
same,glycan array binding signal (z-score),[13],2.89
same,glycan array binding signal (z-score),[14],-0.518
same,glycan array binding signal (z-score),[15],-0.332
same,glycan array binding signal (z-score),[16],0.085
same,glycan array binding signal (z-score),[17],0.001
same,glycan array binding signal (z-score),[18],1.09
same,glycan array binding signal (z-score),[19],-0.519
same,glycan array binding signal (z-score),[20],-0.22
same,glycan array binding signal (z-score),[21],-0.228
same,glycan array binding signal (z-score),[22],-0.621
same,glycan array binding signal (z-score),[23],0.074
same,glycan array binding signal (z-score),[24],0.223
same,glycan array binding signal (z-score),[25],0.84
same,glycan array binding signal (z-score),[26],0.859
same,glycan array binding signal (z-score),[27],0.496
same,glycan array binding signal (z-score),[28],-0.427
same,glycan array binding signal (z-score),[29],-0.751
same,glycan array binding signal (z-score),[30],0.012

# Reprinted at random: two entries already listed
binder,measurement,setting,value
B1,glycan array binding signal (z-score),[11],-0.152
same,glycan array binding signal (z-score),[5],-0.819
